Consider two molecules from publication PMC8228695.

By UniProt entry, the sequences of proteins in these tests, tags left out.
UniProt Q9UM11: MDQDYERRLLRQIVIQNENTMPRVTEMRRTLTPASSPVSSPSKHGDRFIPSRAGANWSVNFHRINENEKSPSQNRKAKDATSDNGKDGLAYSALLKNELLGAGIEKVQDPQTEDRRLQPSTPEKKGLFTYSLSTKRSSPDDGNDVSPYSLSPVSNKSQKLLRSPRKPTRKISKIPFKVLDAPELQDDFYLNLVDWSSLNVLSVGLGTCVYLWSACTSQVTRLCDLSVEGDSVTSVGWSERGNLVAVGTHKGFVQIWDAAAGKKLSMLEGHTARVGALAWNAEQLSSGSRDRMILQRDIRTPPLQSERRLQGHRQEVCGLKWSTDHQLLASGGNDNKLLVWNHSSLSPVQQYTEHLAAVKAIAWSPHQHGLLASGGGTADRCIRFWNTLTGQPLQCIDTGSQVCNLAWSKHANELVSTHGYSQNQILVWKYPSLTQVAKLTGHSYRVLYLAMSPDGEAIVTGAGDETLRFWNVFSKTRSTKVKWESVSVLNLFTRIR

These are yes or no findings as the source states them, for the method shown. Binding seen in cells or lysates may run through a third protein. Some entries that bind do so weakly or less than the wild type.

Common to all, as to assay: co-IP; IP with anti-FBXL8, anti-FZR1 or anti-CCNF antibodies (control IgG or IgG2b) in BRCA cells, immunoblotting with anti-FBXL8, anti-FZR1, anti-CCNF or anti-RRM2 antibodies
Substrate in experiment [1]: T1, CCNF (Cyclin F) (human (endogenous in human BRCA cell lines MCF7, MDA-MB231)) (UniProt P41002)
T1 sequence: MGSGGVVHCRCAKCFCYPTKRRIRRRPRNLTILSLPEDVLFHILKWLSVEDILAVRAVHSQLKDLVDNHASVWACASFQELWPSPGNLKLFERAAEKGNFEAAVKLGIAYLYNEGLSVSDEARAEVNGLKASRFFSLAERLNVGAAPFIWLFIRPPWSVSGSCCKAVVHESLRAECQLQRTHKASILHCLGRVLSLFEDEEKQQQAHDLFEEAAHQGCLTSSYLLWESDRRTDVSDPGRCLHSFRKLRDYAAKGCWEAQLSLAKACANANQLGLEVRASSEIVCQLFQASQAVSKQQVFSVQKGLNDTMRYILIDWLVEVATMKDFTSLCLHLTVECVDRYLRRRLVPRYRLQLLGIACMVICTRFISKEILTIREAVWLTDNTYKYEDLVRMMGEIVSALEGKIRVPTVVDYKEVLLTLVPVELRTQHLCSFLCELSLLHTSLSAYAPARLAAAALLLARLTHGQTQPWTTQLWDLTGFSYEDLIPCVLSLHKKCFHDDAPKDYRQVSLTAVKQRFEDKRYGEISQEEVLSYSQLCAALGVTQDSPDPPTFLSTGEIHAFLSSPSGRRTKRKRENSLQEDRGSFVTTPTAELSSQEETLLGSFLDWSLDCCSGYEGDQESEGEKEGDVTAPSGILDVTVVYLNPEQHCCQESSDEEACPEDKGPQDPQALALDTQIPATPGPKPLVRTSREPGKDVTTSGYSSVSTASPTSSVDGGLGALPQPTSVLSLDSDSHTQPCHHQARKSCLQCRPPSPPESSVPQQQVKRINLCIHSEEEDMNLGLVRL

Experiment [2] deals with T2, FBXL8 (F-Box/Leucine Rich Repeat Protein 8) (human (endogenous in human BRCA cell lines MCF7, MDA-MB231)) (UniProt Q96CD0).
T2 sequence: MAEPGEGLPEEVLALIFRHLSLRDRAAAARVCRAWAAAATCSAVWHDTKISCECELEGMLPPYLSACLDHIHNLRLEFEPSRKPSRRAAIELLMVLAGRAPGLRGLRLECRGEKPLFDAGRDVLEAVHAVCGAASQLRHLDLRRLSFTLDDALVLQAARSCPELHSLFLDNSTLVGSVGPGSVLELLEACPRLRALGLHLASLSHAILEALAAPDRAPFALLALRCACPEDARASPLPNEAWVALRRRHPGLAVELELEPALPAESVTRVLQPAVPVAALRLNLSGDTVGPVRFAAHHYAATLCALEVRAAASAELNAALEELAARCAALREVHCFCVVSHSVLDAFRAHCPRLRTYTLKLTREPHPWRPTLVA

The target in experiment [3] is FZR1 (human (endogenous in human BRCA cell lines MCF7, MDA-MB231)) (UniProt Q9UM11).

B1: RRM2 (Ribonucleotide reductase M2) (protein, UniProt P31350 1-389)
chain: MLSLRVPLAPITDPQQLQLSPLKGLSLVDKENTPPALSGTRVLASKTARRIFQEPTEPKTKAAAPGVEDEPLLRENPRRFVIFPIEYHDIWQMYKKAEASFWTAEEVDLSKDIQHWESLKPEERYFISHVLAFFAASDGIVNENLVERFSQEVQITEARCFYGFQIAMENIHSEMYSLLIDTYIKDPKEREFLFNAIETMPCVKKKADWALRWIGDKEATYGERVVAFAAVEGIFFSGSFASIFWLKKRGLMPGLTFSNELISRDEGLHCDFACLMFKHLVHKPSEERVREIIINAVRIEQEFLTEALPVKLIGMNCTLMKQYIEFVADRLMLELGFSKVFRVENPFDFMENISLEGKTNFFEKRVGEYQRMGVMSSPTENSFTLDADF
For B1, in experiment [1], the binding result is listed as “binds”.

B2: CCNF (Cyclin F) (protein, UniProt P41002 1-786)
chain: MGSGGVVHCRCAKCFCYPTKRRIRRRPRNLTILSLPEDVLFHILKWLSVEDILAVRAVHSQLKDLVDNHASVWACASFQELWPSPGNLKLFERAAEKGNFEAAVKLGIAYLYNEGLSVSDEARAEVNGLKASRFFSLAERLNVGAAPFIWLFIRPPWSVSGSCCKAVVHESLRAECQLQRTHKASILHCLGRVLSLFEDEEKQQQAHDLFEEAAHQGCLTSSYLLWESDRRTDVSDPGRCLHSFRKLRDYAAKGCWEAQLSLAKACANANQLGLEVRASSEIVCQLFQASQAVSKQQVFSVQKGLNDTMRYILIDWLVEVATMKDFTSLCLHLTVECVDRYLRRRLVPRYRLQLLGIACMVICTRFISKEILTIREAVWLTDNTYKYEDLVRMMGEIVSALEGKIRVPTVVDYKEVLLTLVPVELRTQHLCSFLCELSLLHTSLSAYAPARLAAAALLLARLTHGQTQPWTTQLWDLTGFSYEDLIPCVLSLHKKCFHDDAPKDYRQVSLTAVKQRFEDKRYGEISQEEVLSYSQLCAALGVTQDSPDPPTFLSTGEIHAFLSSPSGRRTKRKRENSLQEDRGSFVTTPTAELSSQEETLLGSFLDWSLDCCSGYEGDQESEGEKEGDVTAPSGILDVTVVYLNPEQHCCQESSDEEACPEDKGPQDPQALALDTQIPATPGPKPLVRTSREPGKDVTTSGYSSVSTASPTSSVDGGLGALPQPTSVLSLDSDSHTQPCHHQARKSCLQCRPPSPPESSVPQQQVKRINLCIHSEEEDMNLGLVRL
For B2, the binding entry in experiment [2] and in experiment [3] was “binds” in each case.
